For this experiment, the target named is T1, wild-type human α4 integrin, full length (human) (UniProt P13612).
T1 sequence (chain, biotin (cell surface molecules labelled with NHS-LC-Biotin)): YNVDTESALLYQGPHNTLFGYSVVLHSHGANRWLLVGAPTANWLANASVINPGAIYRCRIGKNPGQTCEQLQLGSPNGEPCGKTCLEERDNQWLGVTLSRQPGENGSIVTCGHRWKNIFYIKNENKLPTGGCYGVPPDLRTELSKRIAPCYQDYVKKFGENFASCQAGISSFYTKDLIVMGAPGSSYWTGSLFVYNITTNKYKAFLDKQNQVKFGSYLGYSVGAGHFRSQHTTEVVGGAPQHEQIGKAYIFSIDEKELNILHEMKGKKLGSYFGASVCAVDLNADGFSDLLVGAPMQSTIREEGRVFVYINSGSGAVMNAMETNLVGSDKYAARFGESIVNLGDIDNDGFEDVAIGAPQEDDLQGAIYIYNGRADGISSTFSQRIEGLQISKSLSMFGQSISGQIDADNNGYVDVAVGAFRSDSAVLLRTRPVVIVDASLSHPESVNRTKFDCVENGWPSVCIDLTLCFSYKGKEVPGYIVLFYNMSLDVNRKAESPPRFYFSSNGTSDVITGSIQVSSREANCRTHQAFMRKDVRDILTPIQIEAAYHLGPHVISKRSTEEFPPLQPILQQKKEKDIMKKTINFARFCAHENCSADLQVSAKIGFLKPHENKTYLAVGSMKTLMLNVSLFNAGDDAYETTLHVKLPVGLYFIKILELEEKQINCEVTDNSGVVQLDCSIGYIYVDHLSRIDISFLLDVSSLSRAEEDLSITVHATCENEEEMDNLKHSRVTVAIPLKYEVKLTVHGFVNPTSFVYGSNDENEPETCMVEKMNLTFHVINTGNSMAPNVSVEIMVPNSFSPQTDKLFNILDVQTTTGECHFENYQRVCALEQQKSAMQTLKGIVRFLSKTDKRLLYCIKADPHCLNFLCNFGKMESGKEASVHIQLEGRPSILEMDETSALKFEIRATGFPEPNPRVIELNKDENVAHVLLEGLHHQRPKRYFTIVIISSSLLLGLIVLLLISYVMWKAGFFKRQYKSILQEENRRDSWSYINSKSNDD
As to the kind of experiment: co-IP; lysates of biotin-labelled PC12 cells co-expressing wild-type α4 and FLAG-paxillin constructs; immunoprecipitated with anti-α4, re-immunoprecipitated with anti-FLAG, western blot with anti-paxillin antibody.

Sequences of proteins named here, by UniProt entry; tags and fusion partners are left off. A change or cut given only in a name is not applied to a line headed by its entry.
UniProt P49024: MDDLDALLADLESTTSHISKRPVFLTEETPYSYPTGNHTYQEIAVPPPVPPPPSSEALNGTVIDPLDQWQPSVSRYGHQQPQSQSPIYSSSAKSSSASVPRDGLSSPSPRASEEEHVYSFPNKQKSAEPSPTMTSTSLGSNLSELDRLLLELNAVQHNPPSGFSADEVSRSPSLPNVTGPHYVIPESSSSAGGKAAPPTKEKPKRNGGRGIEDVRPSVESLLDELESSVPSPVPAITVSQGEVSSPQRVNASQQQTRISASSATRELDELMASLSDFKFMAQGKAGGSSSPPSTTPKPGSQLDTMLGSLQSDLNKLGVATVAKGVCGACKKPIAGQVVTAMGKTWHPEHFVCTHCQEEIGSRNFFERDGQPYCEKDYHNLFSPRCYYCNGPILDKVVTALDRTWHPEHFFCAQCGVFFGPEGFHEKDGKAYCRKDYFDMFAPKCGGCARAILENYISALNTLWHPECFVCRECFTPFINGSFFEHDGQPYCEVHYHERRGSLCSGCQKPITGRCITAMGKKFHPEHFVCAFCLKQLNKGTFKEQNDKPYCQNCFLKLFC

Results are given in words; binding and its absence hold for the method and conditions named. In cells and extracts the contact can be indirect. Binding can be weak; no strength is given.

As to “FLAG-tagged chicken paxillin lacking the LD4 domain (from UniProt P49024)”, the binding result is given as “binds”.
